Measured data: PubChem BioAssay AID1224826 (NIAID, 2016)
The deposit covers about 17,000 reagents; shown is a random part of them. About 1,110 of them (6.6%) count as active. 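Active means lowered or raised reporter signal; replicate intensities are raw and not normalised per plate.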 Not all columns of the deposit are shown.

- Test: 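Knock-downs that raise or lower Tnf reporter signal after endotoxin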 (primary screen)
- Cells: RAW264.7 G9 macrophages from mouse bearing reporters for p65 (GFP) and the Tnf promoter (mCherry)
- Reagents: siRNA pool against mouse genes, 100 nM
- Duration: 16 h of LPS stimulation, after 2 days of siRNA transfection
- Challenge: bacterial lipopolysaccharide (Salmonella minnesota R595), 10 ng/ml
- Measurement: 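Nuclear mCherry signal of the Tnf promoter reporter measured by imaging after background removal, scaled to each plate median and turned into robust z-scores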
- Direction: Tnf reporter robust z-score: higher = stronger Tnf promoter reporter signal after LPS
- Rule for the call: 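a well counts as active at a score of -1.3 or below (Tlr4 knock-down control median) or above 3 (raised signal); controls and wells holding fewer than 50 cells are excluded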
- Calls: active = Tnf reporter clearly lowered or raised; inactive = no clear change in Tnf reporter

What did the screen give for Emilin3 (elastin microfibril interfacer 3) [SID315481019]?
Tnf reporter robust z-score: -0.4; fewer than 50 cells in well: enough cells in well; Call: inactive

With Tex101 (testis expressed gene 101) [SID315471669], how do the results read?
fewer than 50 cells in well: fewer than 50 cells per well; well left out of calls; Call: inactive

What is on record for D830044D21Rik (RIKEN cDNA D830044D21 gene) [SID315481354]?
Tnf reporter robust z-score: 0.81; fewer than 50 cells in well: enough cells in well; Call: inactive

For Or4a74 (olfactory receptor family 4 subfamily A member 74) [SID315480582], what does the deposit list?
Tnf reporter robust z-score: 1.71; fewer than 50 cells in well: enough cells in well; Call: inactive

What did the screen give for Cnot10 (CCR4-NOT transcription complex, subunit 10) [SID315475641]?
Tnf reporter robust z-score: -1.21; fewer than 50 cells in well: enough cells in well; Call: inactive

For Tmc7 (transmembrane channel-like gene family 7) [SID315477614], how do the results read?
fewer than 50 cells in well: fewer than 50 cells per well; well left out of calls; Call: inactive

For Ropn1l (ropporin 1-like) [SID315479920], what does the deposit list?
fewer than 50 cells in well: fewer than 50 cells per well; well left out of calls; Call: inactive

How did the screen score Cldn19 (claudin 19) [SID315479636]?
Tnf reporter robust z-score: -0.95; fewer than 50 cells in well: enough cells in well; Call: inactive

What is on record for Gsc2 (goosecoid homebox 2) [SID315477463]?
Tnf reporter robust z-score: -1.78; fewer than 50 cells in well: enough cells in well; Call: active

For Taf7l (TATA-box binding protein associated factor 7 like) [SID315474982], how do the results read?
Tnf reporter robust z-score: 0.21; fewer than 50 cells in well: enough cells in well; Call: inactive

With Gpr83 (G protein-coupled receptor 83) [SID315466902], how do the results read?
Tnf reporter robust z-score: -1.07; fewer than 50 cells in well: enough cells in well; Call: inactive

For Or2b4 (olfactory receptor family 2 subfamily B member 4) [SID315480667], what does the deposit list?
Tnf reporter robust z-score: -0.61; fewer than 50 cells in well: enough cells in well; Call: inactive

2 entries from above in another layout.
target,PubChem SID,Tnf reporter robust z-score,fewer than 50 cells in well,Call
Emilin3 (elastin microfibril interfacer 3),SID315481019,-0.4,enough cells in well,inactive
Tex101 (testis expressed gene 101),SID315471669,,fewer than 50 cells per well; well left out of calls,inactive
